Experimental data published in the supplement of paper PMC12067093, “Discovery and optimisation of a covalent ligand for TRIM25 and its application to targeted protein ubiquitination” (Chemical Science, 2025).
The list shows a part of the results.

The chains behind the UniProt entries cited, without tags or fusion partners. Where a name states a change or a piece, a line headed by the entry shows the natural chain unless it says otherwise.
UniProt Q8TCD1: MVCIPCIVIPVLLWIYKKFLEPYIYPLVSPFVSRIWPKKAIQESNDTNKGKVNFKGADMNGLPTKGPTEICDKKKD
UniProt Q5T5Y3: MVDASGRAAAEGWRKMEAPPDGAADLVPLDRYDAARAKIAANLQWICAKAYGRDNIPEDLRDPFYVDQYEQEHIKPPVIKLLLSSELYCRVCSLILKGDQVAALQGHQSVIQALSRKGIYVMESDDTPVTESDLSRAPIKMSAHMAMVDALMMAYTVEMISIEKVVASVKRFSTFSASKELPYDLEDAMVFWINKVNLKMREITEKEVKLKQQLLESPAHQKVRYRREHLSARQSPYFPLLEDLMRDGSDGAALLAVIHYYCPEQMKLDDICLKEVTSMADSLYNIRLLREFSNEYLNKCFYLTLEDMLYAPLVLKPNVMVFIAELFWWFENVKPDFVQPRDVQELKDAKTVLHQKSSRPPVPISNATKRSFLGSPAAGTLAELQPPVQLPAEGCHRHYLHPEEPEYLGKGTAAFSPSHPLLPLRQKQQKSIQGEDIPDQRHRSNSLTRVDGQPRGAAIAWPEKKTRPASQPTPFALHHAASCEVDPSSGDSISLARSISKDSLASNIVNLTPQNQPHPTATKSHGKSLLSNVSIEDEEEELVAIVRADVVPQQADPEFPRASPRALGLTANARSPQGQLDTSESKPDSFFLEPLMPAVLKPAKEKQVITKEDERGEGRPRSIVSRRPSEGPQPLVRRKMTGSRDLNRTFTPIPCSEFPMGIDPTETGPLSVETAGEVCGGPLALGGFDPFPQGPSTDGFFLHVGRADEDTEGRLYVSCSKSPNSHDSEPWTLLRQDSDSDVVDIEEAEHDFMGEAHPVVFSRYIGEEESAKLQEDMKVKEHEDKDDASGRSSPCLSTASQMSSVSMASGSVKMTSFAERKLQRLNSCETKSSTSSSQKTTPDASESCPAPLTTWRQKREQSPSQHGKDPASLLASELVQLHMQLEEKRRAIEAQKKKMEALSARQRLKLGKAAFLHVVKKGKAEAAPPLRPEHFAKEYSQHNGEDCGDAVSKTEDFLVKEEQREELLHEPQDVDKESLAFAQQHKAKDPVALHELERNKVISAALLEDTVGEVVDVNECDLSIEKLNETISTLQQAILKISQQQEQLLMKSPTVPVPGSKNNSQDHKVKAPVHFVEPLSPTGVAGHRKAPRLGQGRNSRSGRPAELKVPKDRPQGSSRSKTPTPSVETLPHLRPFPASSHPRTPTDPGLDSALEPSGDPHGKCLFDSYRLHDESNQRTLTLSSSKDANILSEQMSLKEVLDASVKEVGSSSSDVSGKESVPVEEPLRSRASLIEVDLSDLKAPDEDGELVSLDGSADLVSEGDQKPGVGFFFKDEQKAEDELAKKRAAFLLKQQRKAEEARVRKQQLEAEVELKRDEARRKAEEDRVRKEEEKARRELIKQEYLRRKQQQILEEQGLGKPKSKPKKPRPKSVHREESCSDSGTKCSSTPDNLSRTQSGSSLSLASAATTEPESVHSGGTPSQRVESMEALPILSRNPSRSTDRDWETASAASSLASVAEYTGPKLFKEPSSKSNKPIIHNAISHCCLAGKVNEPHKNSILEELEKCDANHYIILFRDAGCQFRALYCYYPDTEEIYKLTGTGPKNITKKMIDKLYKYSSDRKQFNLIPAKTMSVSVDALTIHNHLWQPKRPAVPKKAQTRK
UniProt Q86VP6: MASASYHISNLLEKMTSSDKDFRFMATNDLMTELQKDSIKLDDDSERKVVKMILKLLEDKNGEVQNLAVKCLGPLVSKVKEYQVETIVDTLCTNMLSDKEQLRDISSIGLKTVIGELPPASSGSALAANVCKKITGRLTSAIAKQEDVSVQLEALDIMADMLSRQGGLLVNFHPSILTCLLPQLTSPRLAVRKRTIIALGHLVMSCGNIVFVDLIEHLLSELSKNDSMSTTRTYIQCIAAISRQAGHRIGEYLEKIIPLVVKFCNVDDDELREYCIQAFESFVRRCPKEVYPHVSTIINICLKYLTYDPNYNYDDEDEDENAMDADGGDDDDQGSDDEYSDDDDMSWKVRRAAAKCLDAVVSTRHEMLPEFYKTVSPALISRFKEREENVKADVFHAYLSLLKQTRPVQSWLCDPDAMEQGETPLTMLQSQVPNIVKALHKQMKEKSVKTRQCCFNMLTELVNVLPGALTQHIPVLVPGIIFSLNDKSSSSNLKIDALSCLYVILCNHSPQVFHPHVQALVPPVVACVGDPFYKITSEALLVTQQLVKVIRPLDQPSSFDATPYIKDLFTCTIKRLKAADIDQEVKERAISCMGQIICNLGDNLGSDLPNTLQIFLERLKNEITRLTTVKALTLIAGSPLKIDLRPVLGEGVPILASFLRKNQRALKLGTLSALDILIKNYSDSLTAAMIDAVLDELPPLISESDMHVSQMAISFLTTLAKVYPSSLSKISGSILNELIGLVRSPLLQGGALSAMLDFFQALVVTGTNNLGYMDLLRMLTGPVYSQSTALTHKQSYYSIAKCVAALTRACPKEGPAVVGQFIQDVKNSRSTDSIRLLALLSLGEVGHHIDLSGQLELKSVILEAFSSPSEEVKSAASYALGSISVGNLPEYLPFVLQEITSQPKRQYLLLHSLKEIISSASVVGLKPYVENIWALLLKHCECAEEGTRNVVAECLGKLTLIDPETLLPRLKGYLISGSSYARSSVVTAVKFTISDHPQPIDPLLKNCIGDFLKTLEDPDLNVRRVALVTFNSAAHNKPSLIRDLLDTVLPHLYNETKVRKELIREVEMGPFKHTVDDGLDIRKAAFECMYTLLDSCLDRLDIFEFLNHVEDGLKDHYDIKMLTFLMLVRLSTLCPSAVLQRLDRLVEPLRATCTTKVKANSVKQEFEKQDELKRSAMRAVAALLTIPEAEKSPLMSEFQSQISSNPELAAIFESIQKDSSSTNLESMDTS
UniProt Q06187: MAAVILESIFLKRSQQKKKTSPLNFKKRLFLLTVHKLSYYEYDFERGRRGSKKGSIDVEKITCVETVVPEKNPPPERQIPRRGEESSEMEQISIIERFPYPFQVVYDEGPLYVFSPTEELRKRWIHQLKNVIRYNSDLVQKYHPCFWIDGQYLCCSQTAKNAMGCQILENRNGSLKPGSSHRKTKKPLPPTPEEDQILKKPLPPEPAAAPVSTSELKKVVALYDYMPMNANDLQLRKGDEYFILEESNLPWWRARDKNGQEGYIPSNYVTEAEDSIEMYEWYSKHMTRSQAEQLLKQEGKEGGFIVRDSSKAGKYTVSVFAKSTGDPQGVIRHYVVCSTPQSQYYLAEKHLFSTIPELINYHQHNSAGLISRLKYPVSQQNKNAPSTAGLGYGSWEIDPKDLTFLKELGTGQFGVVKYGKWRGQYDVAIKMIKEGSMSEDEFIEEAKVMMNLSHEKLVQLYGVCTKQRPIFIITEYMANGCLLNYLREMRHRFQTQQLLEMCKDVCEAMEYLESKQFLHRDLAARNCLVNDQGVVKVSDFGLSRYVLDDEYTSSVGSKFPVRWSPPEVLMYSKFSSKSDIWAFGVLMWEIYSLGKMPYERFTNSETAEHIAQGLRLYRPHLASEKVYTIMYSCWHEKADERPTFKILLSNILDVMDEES
UniProt O14981: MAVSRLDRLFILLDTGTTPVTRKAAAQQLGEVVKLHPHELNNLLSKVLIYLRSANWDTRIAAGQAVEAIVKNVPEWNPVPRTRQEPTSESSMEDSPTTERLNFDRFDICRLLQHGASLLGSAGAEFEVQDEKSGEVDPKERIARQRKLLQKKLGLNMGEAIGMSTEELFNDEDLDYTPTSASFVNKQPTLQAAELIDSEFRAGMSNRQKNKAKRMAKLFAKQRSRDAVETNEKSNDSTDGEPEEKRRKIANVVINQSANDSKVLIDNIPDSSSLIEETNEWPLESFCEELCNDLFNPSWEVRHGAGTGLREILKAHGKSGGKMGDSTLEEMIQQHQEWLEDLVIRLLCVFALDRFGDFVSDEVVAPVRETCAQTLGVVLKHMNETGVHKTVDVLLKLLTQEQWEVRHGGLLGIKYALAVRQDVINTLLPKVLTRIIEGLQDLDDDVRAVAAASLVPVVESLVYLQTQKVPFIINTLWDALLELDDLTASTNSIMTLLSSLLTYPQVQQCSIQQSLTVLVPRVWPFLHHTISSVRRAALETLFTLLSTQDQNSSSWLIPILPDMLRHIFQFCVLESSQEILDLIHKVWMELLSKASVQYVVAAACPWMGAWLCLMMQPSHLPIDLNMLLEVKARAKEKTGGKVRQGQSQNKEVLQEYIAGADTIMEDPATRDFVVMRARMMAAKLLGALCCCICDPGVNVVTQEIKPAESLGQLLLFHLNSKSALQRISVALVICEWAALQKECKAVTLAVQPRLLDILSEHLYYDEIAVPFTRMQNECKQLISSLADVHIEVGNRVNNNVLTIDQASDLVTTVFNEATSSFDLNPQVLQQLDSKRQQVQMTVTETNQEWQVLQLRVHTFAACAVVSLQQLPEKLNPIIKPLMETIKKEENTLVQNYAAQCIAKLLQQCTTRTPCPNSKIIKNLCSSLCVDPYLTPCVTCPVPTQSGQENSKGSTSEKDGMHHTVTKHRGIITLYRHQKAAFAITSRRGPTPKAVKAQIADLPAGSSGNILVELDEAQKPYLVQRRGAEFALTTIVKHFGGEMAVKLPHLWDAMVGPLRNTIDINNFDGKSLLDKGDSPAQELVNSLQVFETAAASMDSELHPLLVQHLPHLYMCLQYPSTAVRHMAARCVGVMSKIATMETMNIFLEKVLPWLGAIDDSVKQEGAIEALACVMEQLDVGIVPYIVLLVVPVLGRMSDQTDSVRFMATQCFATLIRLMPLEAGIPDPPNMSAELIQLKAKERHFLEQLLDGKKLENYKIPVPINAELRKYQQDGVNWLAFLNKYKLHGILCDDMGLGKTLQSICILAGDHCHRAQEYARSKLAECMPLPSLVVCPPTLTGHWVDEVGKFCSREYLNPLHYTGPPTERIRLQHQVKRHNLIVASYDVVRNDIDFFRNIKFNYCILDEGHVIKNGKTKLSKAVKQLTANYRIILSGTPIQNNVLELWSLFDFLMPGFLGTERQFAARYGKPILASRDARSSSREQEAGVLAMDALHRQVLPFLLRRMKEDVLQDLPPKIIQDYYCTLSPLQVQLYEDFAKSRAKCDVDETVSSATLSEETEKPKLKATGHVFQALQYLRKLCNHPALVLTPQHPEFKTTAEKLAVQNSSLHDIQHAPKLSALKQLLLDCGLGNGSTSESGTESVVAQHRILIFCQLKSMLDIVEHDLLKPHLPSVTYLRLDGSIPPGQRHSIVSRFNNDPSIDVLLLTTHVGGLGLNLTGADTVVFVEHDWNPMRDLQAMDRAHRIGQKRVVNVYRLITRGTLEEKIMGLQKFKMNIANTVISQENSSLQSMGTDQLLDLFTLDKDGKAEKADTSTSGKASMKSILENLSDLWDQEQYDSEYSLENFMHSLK
UniProt A6NDU8: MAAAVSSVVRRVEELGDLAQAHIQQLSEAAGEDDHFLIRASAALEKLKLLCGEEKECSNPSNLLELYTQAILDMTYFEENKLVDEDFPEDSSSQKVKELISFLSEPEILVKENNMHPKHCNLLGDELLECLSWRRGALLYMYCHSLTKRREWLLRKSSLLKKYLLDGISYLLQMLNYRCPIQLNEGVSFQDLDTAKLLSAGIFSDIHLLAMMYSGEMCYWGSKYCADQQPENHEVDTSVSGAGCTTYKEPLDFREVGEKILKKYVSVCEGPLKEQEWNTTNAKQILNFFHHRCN
UniProt Q8N3J3: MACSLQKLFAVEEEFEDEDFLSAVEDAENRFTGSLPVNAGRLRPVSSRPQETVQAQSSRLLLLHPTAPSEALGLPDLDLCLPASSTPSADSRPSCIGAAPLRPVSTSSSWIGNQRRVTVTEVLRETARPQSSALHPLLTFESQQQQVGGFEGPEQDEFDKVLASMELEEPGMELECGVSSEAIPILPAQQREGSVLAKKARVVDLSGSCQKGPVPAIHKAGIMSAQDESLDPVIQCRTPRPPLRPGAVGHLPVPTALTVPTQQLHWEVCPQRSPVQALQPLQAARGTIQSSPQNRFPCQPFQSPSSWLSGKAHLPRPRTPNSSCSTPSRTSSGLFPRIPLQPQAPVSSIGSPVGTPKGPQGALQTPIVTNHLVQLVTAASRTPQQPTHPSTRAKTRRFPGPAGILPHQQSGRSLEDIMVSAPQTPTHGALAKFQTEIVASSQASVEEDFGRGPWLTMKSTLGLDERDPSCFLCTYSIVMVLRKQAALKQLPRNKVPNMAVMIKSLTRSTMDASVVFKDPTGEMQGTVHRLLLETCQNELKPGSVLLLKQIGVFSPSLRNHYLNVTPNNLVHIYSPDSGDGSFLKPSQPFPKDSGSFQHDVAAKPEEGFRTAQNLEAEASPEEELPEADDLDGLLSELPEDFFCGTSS
UniProt Q9BV19: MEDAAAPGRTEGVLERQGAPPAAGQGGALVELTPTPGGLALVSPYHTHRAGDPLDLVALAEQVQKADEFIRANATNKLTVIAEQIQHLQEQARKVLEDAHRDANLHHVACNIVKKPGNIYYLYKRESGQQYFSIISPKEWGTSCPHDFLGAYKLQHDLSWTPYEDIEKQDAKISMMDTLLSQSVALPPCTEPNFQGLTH

Compound: CC1Cc2ccccc2N1C(=O)C1CCCN(C1)C(=O)CCl (mixture of isomers) [TRIM25 ligand 11 (diastereomer mixture)]
Test: probe-labelled cysteine peptide fold change vs DMSO (competition) (log2 fold change); higher = less target engagement (more negative = stronger competition)
Conditions: THP-1, incubation time: 4 h
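Also: competitive chemoproteomic profiling in live THP-1 cells with an iodoacetamide desthiobiotin (IA-DTB) probe, comparing probe-labelled peptide intensities in compound-treated cells against DMSO-treated controls.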

Target | probe-labelled cysteine peptide fold change (10 µM) | probe-labelled cysteine peptide fold change (50 µM)
CABIN1_Q9Y6J0_1197_CEGDGDEEEWLIHYMLGK (UniProt Q9Y6J0) | -0.0356 | -0.143
C18orf32_Q8TCD1_71_GPTEICDK (UniProt Q8TCD1) | -0.0577 | -0.0508
C16orf62_Q7Z3J2_214_IVIQCSK (UniProt Q7Z3J2) | -0.0428 | 0.1
C6orf89_Q6UWU4_28_QTGHQCGMSEK (UniProt Q6UWU4) | -0.188 | -0.211
CAMSAP1_Q5T5Y3_1379_EESCSDSGTK (UniProt Q5T5Y3) | 0.111 | 0.079
CAD_P27708_897_QELGICPAVK (UniProt P27708) | 0.0763 | -0.0111
CAMSAP1_Q5T5Y3_1487_SNKPIIHNAISHCCLAGK (UniProt Q5T5Y3) | -0.189 | -0.182
BRI3_O95415_78_YPANSIVVVGGCPVCR (UniProt O95415) | -0.0839 | -0.117
BRWD1_Q9NSI6_1166_SRDEECDR (UniProt Q9NSI6) | 0.0938 | 0.0153
C8orf88_P0DMB2_93_LSSVSICR (UniProt P0DMB2) | -0.198 | -0.199
CAD_P27708_252_VLSEPNPRPVFGICLGHQLLALAIGAK (UniProt P27708) | -0.501 | -0.364
CAND1_Q86VP6_571_DLFTCTIKR (UniProt Q86VP6) | -0.101 | -0.178
CALR_P27797_163_CKDDEFTHLYTLIVRPDNTYEVK (UniProt P27797) | 0.0271 | 0.0853
BTK_Q06187_527_NCLVNDQGVVK (UniProt Q06187) | 0.0973 | 0.0844
BTBD2_Q9BX70_294_WSEAECQR (UniProt Q9BX70) | -0.0695 | -0.00465
BRF1_Q92994_229_RPSGLCGAALLVAAR (UniProt Q92994) | -0.117 | 0.0817
BTAF1_O14981_1209_FMATQCFATLIR (UniProt O14981) | -0.0199 | 0.142
CAND1_Q86VP6_1153_ATCTTK (UniProt Q86VP6) | -0.0776 | -0.101
BRIX1_Q8TDN6_52_HATAEEVEEEERDRIPGPVCK (UniProt Q8TDN6) | -0.0245 | -0.238

Target | probe-labelled cysteine peptide fold change (10 µM) | probe-labelled cysteine peptide fold change (50 µM)
C16orf62_Q7Z3J2_614_HQQEPTKDPVILNALLHVCK (UniProt Q7Z3J2) | 0.122 | 0.337
BRCA2_P51587_1399_AQEACHGNTSNK (UniProt P51587) | 0.0546 | -0.116
CAND1_Q86VP6_237_TYIQCIAAISR (UniProt Q86VP6) | 0.19 | 0.181
C5orf51_A6NDU8_120_HCNLLGDELLECLSWR (UniProt A6NDU8) | -0.0141 | 0.102
BST1_Q10588_271_LLQCVDHSTHPDCALK (UniProt Q10588) | 0.0745 | -0.0297
CAMLG_P49069_123_GTQLGDKLDSFIKPPECSSDVNLELR (UniProt P49069) | -0.134 | -0.228
BRAP_Q7Z569_264_CTVCLER (UniProt Q7Z569) | 0.175 | 0.13
CABIN1_Q9Y6J0_589_FGPDFPGTHCLGDLLQLSFASSQR (UniProt Q9Y6J0) | 0.0411 | -0.0885
C17orf53_Q8N3J3_209_VVDLSGSCQK (UniProt Q8N3J3) | -0.0206 | 0.0542
C1orf50_Q9BV19_144_EWGTSCPHDFLGAYK (UniProt Q9BV19) | -0.0817 | 0.0435
BTAF1_O14981_1401_FNYCILDEGHVIK (UniProt O14981) | 0.0958 | 0.067
CAMK2G_Q13555_290_QETVECLR (UniProt Q13555) | -0.000214 | 0.0281
BUB1B_O60566_700_CLQIPEK (UniProt O60566) | 0.00823 | 0.371
BRD7_Q9NPI1_107_DLQCHAPVR (UniProt Q9NPI1) | 0.127 | -0.0376
BROX_Q5VW32_52_LLELFTDLSCNPEMMK (UniProt Q5VW32) | -0.0592 | -0.107
BUB3_O43684_129_TPCNAGTFSQPEK (UniProt O43684) | -0.0896 | -0.0906
C5orf51_A6NDU8_268_YVSVCEGPLK (UniProt A6NDU8) | 0.0584 | 0.0286
BRD2_P25440_353_HCNGILK (UniProt P25440) | -0.0579 | 0.0332
BTK_Q06187_63_ITCVETVVPEK (UniProt Q06187) | -0.046 | -0.00326

An excerpt of these results, tab-delimited:
Target	probe-labelled cysteine peptide fold change (10 µM)	probe-labelled cysteine peptide fold change (50 µM)
C18orf32_Q8TCD1_71_GPTEICDK (UniProt Q8TCD1)	-0.0577	-0.0508
C17orf53_Q8N3J3_209_VVDLSGSCQK (UniProt Q8N3J3)	-0.0206	0.0542
